These are yes or no findings as the source states them, for the method shown. Binding seen in cells or lysates may run through a third protein. A result given as binding can be weak or reduced; the word gives no strength. Sequences can lack the tags named with a protein.
Assays:
[1] = target: recombinant Hp1489 (GST-tag) (H. pylori) (UniProt O26022); experiment: co-IP; soluble extract of E. coli BL-21(DE3) co-expressing the two recombinant proteins; anti-CagI, anti-CagH or anti-Hp1489 antibody; Western blotting
[2] = target: MBP-CagH (H. pylori 26695); experiment: as above

B1: recombinant CagI (without tag), Δ32N (domain or fragment, UniProt O25273 33-381)
chain: AIQADAQAKQKTAQAELKAIEAQSSAKEKAIQAQIEGELRTQLATMSAMLKGANGVINGVNGMTGGFFAGSDILLGVMEGYSSALSALGGNVKMIVEKQKINTQTEIQNMQIALQKNNEIIKLKMNQQNALLEALKNSFEPSVTLKTQMEMLSQALGSSSDNAQYIAYNTIGIKAFEETLKGFETWLKVAMQKATLIDYNSLTGQALFQSAIYAPALSFFSSMGAPFGIIETFTLAPTKCPYLDGLKISACLMEQVIQNYRMIVALIQNKLSDADFQNIAYLNGINGEIKTLKGSVDLNALIEVAILNAENHLNYIENLEKKADLWEEQLKLERETTARNIASSKVIVK
binding [1]: binds | binding [2]: binds

Reference: paper PMC3769253
